Assay results reported in the supplement of paper PMC8728848.
The other results are listed elsewhere or left out.

Key:
Test in all cases: glycan array binding signal (z-score within array); higher = stronger binding
Details in all cases: glycan notation: IUPAC condensed, linker removed
[1] = target: Neu5Ac(a2-3)Gal(b1-3)GlcNAc6S
Summary of the method: (§1)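 The binding signal is a Z-score computed within each array and averaged over linkers. Arrays of the same protein sequence at different concentrations or buffers were also averaged together. Data originate from 3228 arrays in the Consortium for Functional Glycomics database, kept only where the protein sequence was available.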

[2] = target: Neu5Ac(a2-3)Gal(b1-3)[Fuc(a1-4)]GlcNAc
Summary of the method: as §1

[3] = target: Neu5Ac(a2-3)Gal(b1-3)[Fuc(a1-4)]GlcNAc(b1-3)Gal(b1-3)[Fuc(a1-4)]GlcNAc
Summary of the method: as §1

[4] = target: Neu5Ac(a2-3)Gal(b1-3)[Fuc(a1-4)]GlcNAc(b1-3)Gal(b1-4)[Fuc(a1-3)]GlcNAc
Summary of the method: as §1

[5] = target: Neu5Ac(a2-3)Gal(b1-3)[GlcNAc(b1-6)]GalNAc
Summary of the method: as §1

[6] = target: Neu5Ac(a2-3)Gal(b1-3)[Neu5Ac(a2-6)]GalNAc
Summary of the method: as §1

[7] = target: Neu5Ac(a2-3)Gal(b1-3)[Neu5Ac(a2-6)]GlcNAc(b1-3)[Fuc(a1-3)[Gal(b1-4)]GlcNAc(b1-6)]Gal(b1-4)Glc
Summary of the method: as §1

[8] = target: Neu5Ac(a2-3)Gal(b1-3)]Neu5Ac(a2-3)Gal(b1-4)]GlcNAc
Summary of the method: as §1

Neu5Ac(a2-3)Gal(b1-4)Glc = target: Neu5Ac(a2-3)Gal(b1-4)Glc
Summary of the method: as §1

[9] = target: Neu5Ac(a2-3)Gal(b1-4)GlcNAc
Summary of the method: as §1

[10] = target: Neu5Ac(a2-3)Gal(b1-4)GlcNAc(b1-2)Man
Summary of the method: as §1

[11] = target: Neu5Ac(a2-3)Gal(b1-4)GlcNAc(b1-2)Man(a1-3)[GlcNAc(b1-4)][Neu5Ac(a2-3)Gal(b1-4)GlcNAc(b1-2)Man(a1-6)]Man(b1-4)GlcNAc(b1-4)GlcNAc
Summary of the method: as §1

[12] = target: Neu5Ac(a2-3)Gal(b1-4)GlcNAc(b1-2)Man(a1-3)[Neu5Ac(a2-3)Gal(b1-4)GlcNAc(b1-2)Man(a1-6)]Man(b1-4)GlcNAc(b1-4)GlcNAc
Summary of the method: as §1

[13] = target: Neu5Ac(a2-3)Gal(b1-4)GlcNAc(b1-2)Man(a1-3)[Neu5Ac(a2-3)Gal(b1-4)GlcNAc(b1-2)Man(a1-6)]Man(b1-4)GlcNAc(b1-4)[Fuc(a1-6)]GlcNAc
Summary of the method: as §1

[14] = target: Neu5Ac(a2-3)Gal(b1-4)GlcNAc(b1-2)Man(a1-3)[Neu5Ac(a2-6)Gal(b1-4)GlcNAc(b1-2)Man(a1-6)]Man(b1-4)GlcNAc(b1-4)GlcNAc
Summary of the method: as §1

[15] = target: Neu5Ac(a2-3)Gal(b1-4)GlcNAc(b1-2)[Neu5Ac(a2-3)Gal(b1-4)GlcNAc(b1-4)]Man(a1-3)[GlcNAc(b1-4)][Neu5Ac(a2-3)Gal(b1-4)GlcNAc(b1-2)[Neu5Ac(a2-3)Gal(b1-4)GlcNAc(b1-6)]Man(a1-6)]Man(b1-4)GlcNAc(b1-4)GlcNAc
Summary of the method: as §1

[16] = target: Neu5Ac(a2-3)Gal(b1-4)GlcNAc(b1-2)[Neu5Ac(a2-3)Gal(b1-4)GlcNAc(b1-4)]Man(a1-3)[GlcNAc(b1-4)][Neu5Ac(a2-3)Gal(b1-4)GlcNAc(b1-4)Man(a1-6)]Man(b1-4)GlcNAc(b1-4)GlcNAc
Summary of the method: as §1

[17] = target: Neu5Ac(a2-3)Gal(b1-4)GlcNAc(b1-2)[Neu5Ac(a2-3)Gal(b1-4)GlcNAc(b1-6)]Man(a1-6)[Neu5Ac(a2-3)Gal(b1-4)GlcNAc(b1-2)Man(a1-3)][GlcNAc(b1-4)]Man(b1-4)GlcNAc(b1-4)GlcNAc
Summary of the method: as §1

[18] = target: Neu5Ac(a2-3)Gal(b1-4)GlcNAc(b1-3)Gal
Summary of the method: as §1

[19] = target: Neu5Ac(a2-3)Gal(b1-4)GlcNAc(b1-3)Gal(b1-3)GlcNAc
Summary of the method: as §1

[20] = target: Neu5Ac(a2-3)Gal(b1-4)GlcNAc(b1-3)Gal(b1-4)GlcNAc
Summary of the method: as §1

[21] = target: Neu5Ac(a2-3)Gal(b1-4)GlcNAc(b1-3)Gal(b1-4)GlcNAc(b1-2)Man(a1-3)[Neu5Ac(a2-3)Gal(b1-4)GlcNAc(b1-3)Gal(b1-4)GlcNAc(b1-2)Man(a1-6)]Man(b1-4)GlcNAc(b1-4)GlcNAc
Summary of the method: as §1

[22] = target: Neu5Ac(a2-3)Gal(b1-4)GlcNAc(b1-3)Gal(b1-4)GlcNAc(b1-3)Gal(b1-4)GlcNAc
Summary of the method: as §1

[23] = target: Neu5Ac(a2-3)Gal(b1-4)GlcNAc(b1-3)Gal(b1-4)GlcNAc(b1-3)Gal(b1-4)GlcNAc(b1-2)Man(a1-3)[Neu5Ac(a2-3)Gal(b1-4)GlcNAc(b1-3)Gal(b1-4)GlcNAc(b1-3)Gal(b1-4)GlcNAc(b1-2)Man(a1-6)]GalNAc
Summary of the method: as §1

[24] = target: Neu5Ac(a2-3)Gal(b1-4)GlcNAc(b1-3)Gal(b1-4)GlcNAc(b1-3)GalNAc
Summary of the method: as §1

[25] = target: Neu5Ac(a2-3)Gal(b1-4)GlcNAc(b1-3)Gal(b1-4)GlcNAc(b1-3)[Neu5Ac(a2-3)Gal(b1-4)GlcNAc(b1-3)Gal(b1-4)GlcNAc(b1-6)]GalNAc
Summary of the method: as §1

[26] = target: Neu5Ac(a2-3)Gal(b1-4)GlcNAc(b1-3)Gal(b1-4)GlcNAc(b1-6)[Gal(b1-3)]GalNAc
Summary of the method: as §1

[27] = target: Neu5Ac(a2-3)Gal(b1-4)GlcNAc(b1-3)Gal(b1-4)[Fuc(a1-3)]GlcNAc
Summary of the method: as §1

[28] = target: Neu5Ac(a2-3)Gal(b1-4)GlcNAc(b1-3)GalNAc
Summary of the method: as §1

[29] = target: Neu5Ac(a2-3)Gal(b1-4)GlcNAc(b1-3)[Neu5Ac(a2-3)Gal(b1-4)GlcNAc(b1-6)]GalNAc
Summary of the method: as §1

B1: Thrombomodulin Extracellular (Mus musculus), P15306 (protein)
chain: MLGIFFLGVLAPASLGLSALAKLQPTGSQCVEHECFALFQGPATFLDASQACQRLQGHLMTVRSSVAADVISLLLSQSSMDLGPWIGLQLPQGCDDPVHLGPLRGFQWVTGDNHTSYSRWARPNDQTAPLCGPLCVTVSTATEAAPGEPAWEEKPCETETQGFLCEFYFTASCRPLTVNTRDPEAAHISSTYNTPFGVSGADFQTLPVGSSAAVEPLGLELVCRAPPGTSEGHWAWEATGAWNCSVENGGCEYLCNRSTNEPRCLCPRDMDLQADGRSCARPVVQSCNELCEHFCVSNAEVPGSYSCMCETGYQLAADGHRCEDVDDCKQGPNPCPQLCVNTKGGFECFCYDGYELVDGECVELLDPCFGSNCEFQCQPVSPTDYRCICAPGFAPKPDEPHKCEMFCNETSCPADCDPNSPTVCECPEGFILDEGSVCTDIDECSQGECFTSECRNFPGSYECICGPDTALAGQISKDCDPIPVREDTKEEEGSGEPPVSPTPGSPTGPPSARPVHSGVLIGISIASLSLVVALLALLCHLRKKQGAARAELEYKCASSAKEVVLQHVRTDRTLQKF
- glycan array binding signal (z-score) [1]: 0.217
- glycan array binding signal (z-score) [2]: 1.02
- glycan array binding signal (z-score) [3]: 0.842
- glycan array binding signal (z-score) [4]: -0.677
- glycan array binding signal (z-score) [5]: -1.64
- glycan array binding signal (z-score) [6]: -0.012
- glycan array binding signal (z-score) [7]: -0.894
- glycan array binding signal (z-score) [8]: -0.84
- glycan array binding signal (z-score) (Neu5Ac(a2-3)Gal(b1-4)Glc): -0.593
- glycan array binding signal (z-score) [9]: 0.054
- glycan array binding signal (z-score) [10]: 0.454
- glycan array binding signal (z-score) [11]: -0.092
- glycan array binding signal (z-score) [12]: 0.132
- glycan array binding signal (z-score) [13]: -0.652
- glycan array binding signal (z-score) [14]: 0.813
- glycan array binding signal (z-score) [15]: -0.306
- glycan array binding signal (z-score) [16]: -0.19
- glycan array binding signal (z-score) [17]: -0.599
- glycan array binding signal (z-score) [18]: 0.003
- glycan array binding signal (z-score) [19]: -0.019
- glycan array binding signal (z-score) [20]: 0.067
- glycan array binding signal (z-score) [21]: -0.523
- glycan array binding signal (z-score) [22]: -1.49
- glycan array binding signal (z-score) [23]: 0.338
- glycan array binding signal (z-score) [24]: -0.036
- glycan array binding signal (z-score) [25]: 0.846
- glycan array binding signal (z-score) [26]: -0.623
- glycan array binding signal (z-score) [27]: -0.925
- glycan array binding signal (z-score) [28]: 1.03
- glycan array binding signal (z-score) [29]: 0.215
